Measured values published in article PMC3712580.
These are yes or no findings as the source states them, for the method shown. Binding seen in cells or lysates may run through a third protein. Some entries that bind do so weakly or less than the wild type.

Sequences of proteins named here, by UniProt entry; tags and fusion partners are left off.
UniProt Q04206: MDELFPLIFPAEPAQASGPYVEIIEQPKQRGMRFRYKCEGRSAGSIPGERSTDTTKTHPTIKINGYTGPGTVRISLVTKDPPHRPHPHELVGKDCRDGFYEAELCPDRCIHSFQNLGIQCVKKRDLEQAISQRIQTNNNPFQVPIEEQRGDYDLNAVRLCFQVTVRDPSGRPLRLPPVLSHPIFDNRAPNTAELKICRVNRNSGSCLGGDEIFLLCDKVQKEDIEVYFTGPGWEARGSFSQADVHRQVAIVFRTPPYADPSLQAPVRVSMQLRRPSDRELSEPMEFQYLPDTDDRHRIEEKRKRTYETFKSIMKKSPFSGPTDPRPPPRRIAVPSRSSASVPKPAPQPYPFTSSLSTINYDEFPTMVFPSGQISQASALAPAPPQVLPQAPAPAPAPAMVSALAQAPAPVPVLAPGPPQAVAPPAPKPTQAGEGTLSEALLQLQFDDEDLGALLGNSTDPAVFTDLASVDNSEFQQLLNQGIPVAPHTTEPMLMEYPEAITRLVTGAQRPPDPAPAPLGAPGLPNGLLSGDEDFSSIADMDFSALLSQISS
UniProt O43707: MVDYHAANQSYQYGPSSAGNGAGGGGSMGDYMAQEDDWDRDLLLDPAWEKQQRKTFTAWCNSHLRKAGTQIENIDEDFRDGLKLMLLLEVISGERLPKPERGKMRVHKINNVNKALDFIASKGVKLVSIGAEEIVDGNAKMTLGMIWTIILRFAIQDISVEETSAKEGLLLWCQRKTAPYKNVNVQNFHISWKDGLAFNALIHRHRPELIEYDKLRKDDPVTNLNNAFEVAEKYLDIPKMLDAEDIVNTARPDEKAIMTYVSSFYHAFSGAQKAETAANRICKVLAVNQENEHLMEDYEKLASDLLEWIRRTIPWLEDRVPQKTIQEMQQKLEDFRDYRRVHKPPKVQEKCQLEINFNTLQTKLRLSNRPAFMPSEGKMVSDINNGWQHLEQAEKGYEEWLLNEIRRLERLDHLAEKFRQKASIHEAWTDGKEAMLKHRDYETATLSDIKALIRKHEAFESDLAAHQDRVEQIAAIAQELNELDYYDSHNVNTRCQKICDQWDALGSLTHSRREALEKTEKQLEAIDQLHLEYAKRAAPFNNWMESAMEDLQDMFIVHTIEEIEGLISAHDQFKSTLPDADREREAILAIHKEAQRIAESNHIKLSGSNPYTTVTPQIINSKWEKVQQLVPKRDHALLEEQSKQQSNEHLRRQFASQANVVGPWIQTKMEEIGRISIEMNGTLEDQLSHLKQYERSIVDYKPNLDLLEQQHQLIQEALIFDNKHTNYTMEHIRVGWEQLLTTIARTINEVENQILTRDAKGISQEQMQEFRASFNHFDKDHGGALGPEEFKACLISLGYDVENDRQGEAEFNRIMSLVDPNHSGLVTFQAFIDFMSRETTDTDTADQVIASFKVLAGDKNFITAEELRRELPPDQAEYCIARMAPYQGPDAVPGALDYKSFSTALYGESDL

Target: RelA/p65 subunit of the nuclear factor-kB (NF-kB) (human (endogenous in HEK293T)) (UniProt Q04206)
Assay: co-IP; RelA/p65 immunoprecipitated with agarose-conjugated anti-RelA/p65 antibody (sc-8008 AC) from precleared cytoplasm extracts of HEK293T cells expressing MYC-ACTN4Fl, overnight incubation; immunoblotting with anti-MYC and anti-RelA/p65

**Q.** With “Alpha-actinin 4 (ACTN4), full-length, with MYC-tag at the N-terminus (from UniProt O43707 1-911)” as the substance, how does the binding read?
**A.** binds
